Results deposited as PubChem BioAssay AID652243 (Drosophila RNAi Screening Center, 2013).
The deposit covers about 24,000 reagents; this is a random part of those with a known target gene and a result. Of all reagents, 246 (1%) are marked active. 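Plates not normalised; calls are printed but the firefly/Renilla ratio behind them is not deposited; fold cut for lowering reported inconsistently.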 Raw values are not corrected between plates. A plus sign joins genes that one reagent is predicted to hit. Not stated in the record: the amount of reagent.

Assay: 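Knock-downs that decrease or increase androgen receptor reporter signal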 (primary screen)
Cell system: Drosophila S2R+ cells
Reagent: long dsRNA against Drosophila genes
Duration: 72 h (48 h, then 24 h hormone)
Challenge: synthetic androgen R1881 at 10 nM for 24 h
Measurement: 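Per-well raw luminescence of the androgen-driven firefly reporter and of the Renilla control, two replicates each, without normalisation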
Scale: firefly reporter light: higher = more light from androgen-responsive reporter; Renilla control light: higher = more constitutive control signal (cell number, transfection)
Active means: 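Hit when the log firefly-to-Renilla ratio dropped or increased by a fixed fold versus the mean of GFP or LacZ controls across duplicate plates; lowering cut given as 1.5 and as 3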
Meaning of the calls: active = hit: reporter lowered or raised; inactive = no hit

target	dsRNA	firefly reporter light, replicate 1	firefly reporter light, replicate 2	Renilla control light, replicate 1	Renilla control light, replicate 2	outcome
Ccdc56 + mtTFB1	DRSC10809	6.18e5	6.46e5	1.75e6	1.49e6	inactive
Ccdc56 + mtTFB1	DRSC28766	7.10e5	5.68e5	1.22e6	1.06e6	inactive
mgr	DRSC16099	1.62e5	1.15e5	1.95e6	2.09e6	inactive
CG14102	DRSC10103	1.51e5	1.78e5	1.46e6	1.68e6	inactive
Cyp309a1	DRSC00747	1.12e5	1.11e5	8.58e5	8.08e5	inactive
Fbp1	DRSC11166	1.23e5	1.20e5	1.42e6	1.38e6	inactive
Fbp1	DRSC26593	2.58e5	3.20e5	2.49e5	4.47e5	inactive
Lkb1	DRSC16481	43066	49194	2.72e5	4.04e5	inactive
Lkb1	DRSC36925					inactive
Lkb1	DRSC36926					inactive
fwe	DRSC10594	1.43e5	70898	9.82e5	7.78e5	inactive
fwe	DRSC21400	1.32e5	1.61e5	2.11e6	2.20e6	inactive
Psi	DRSC07519	80225	87631	1.80e6	1.80e6	inactive
Psi	DRSC25220	4.91e5	3.00e5	5.72e5	6.21e5	inactive
Psi	DRSC38971	8.20e5	8.12e5	1.39e6	1.67e6	inactive
Toll-9	DRSC11776	3.06e5	1.97e5	1.94e6	2.03e6	inactive
CG1529	DRSC20515	5.20e5	4.88e5	2.28e6	2.34e6	inactive
CG1529	DRSC24433	6.57e5	9.26e5	1.24e6	1.19e6	inactive
Svip	DRSC08982	1.59e5	1.37e5	4.26e5	5.89e5	inactive
Svip	DRSC28597	4.66e5	4.08e5	1.45e6	1.27e6	inactive
Sema5c	DRSC11279	95628	69786	2.82e6	2.30e6	active
Sema5c	DRSC26621	4.02e5	3.15e5	4.44e5	4.51e5	inactive
CG15912	DRSC18105	2.35e5	5.07e5	4.26e6	3.47e6	inactive
CG15912	DRSC28275	2.85e5	5.46e5	9.44e5	1.34e6	inactive

Hits, of those listed so far:
target	dsRNA	firefly reporter light, replicate 1	firefly reporter light, replicate 2	Renilla control light, replicate 1	Renilla control light, replicate 2	outcome
Sema5c	DRSC11279	95628	69786	2.82e6	2.30e6	active
